Screening data, single-dose tests

Each number is a percent effect as filed. How 0% and 100% were set is not recorded. Most values in the screen are low, and negative values occur. This is an unselected part of the compounds tested. Two or more numbers in one place are separate tests of the same structure; such repeats can differ widely. A dash means the value is not listed here; it may have been measured.

Toxoplasma: 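Assay of Toxoplasma gondii numbers, read through their beta-galactosidase reporter with a colour substrate. Compounds at 10 µM. The record gives no direction; the compounds picked for IC50 retests had high values, so higher reads as fewer parasites. Size under these conditions: about 67,000 compounds, about 260 of them at 50% or above in at least one test.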
Leishmania in macrophages: 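Cell assay of Leishmania donovani living inside macrophages; the read-out is not stated. Concentration: 30 µM. Direction is inferred from retests: higher values go with stronger inhibition. Of about 69,000 compounds tested this way, about 1,000 (1.5%) reached 50% or more in at least one test.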

| SMILES | Toxoplasma | Leishmania in macrophages |
|---|---|---|
| `Cc1[nH]ncc1C(=O)N1CCCN(Cc2nccn2C(C)C)CC1` | 2.034% | -2.188% |
| `Cn1ccc(C(=O)N2CCCC(c3cc(O)n(C)n3)C2)n1` (centres undefined) | 5.764% | 15.04% |
| `CN1CCCc2ccc(S(=O)(=O)NC(=O)C3CC=CC3)cc21` | 10.98% | -3.998% |
| `CCN1CCC(CNCc2cc(C)ccc2OC)C1` (centres undefined) | 5.627% | 25.4% |
| `COc1ccc(Cl)cc1CS(=O)(=O)Cc1nc(C)no1` | 2.185% | 60.61% |
| `CC(C)c1nc(CN(C)C(=O)[C@H](N)Cc2ccc(Cl)cc2)cs1` | -12.2% | 64.25% |
| `CC(C)N(C)Cc1cncc2c1CCN(Cc1ccoc1)C2.Cl.Cl.Cl` | -36.28% | 28.71% |
| `CC(C)c1[nH]c2ncccc2c1CN1CCOCC1.Cl` | 7.042% | -24.88% |
| `Cc1cccc(CN2C(=O)CCC23CCN(C(=O)N2CCCC2)CC3)n1.O=C(O)C(F)(F)F` | -4.695% | 1.382% |
| `CC(C)(O)CN1CCN(C(=O)c2cccc(CC#N)c2)CC1` | 0.9648% | -37.17% |
| `CCc1ccc(C(=O)Nc2ccc3c(c2)N(C)CCN(C)C3)o1` | -12.7% | 39.62% |
| `COCC(=O)N1CCC2(CC1)CN(c1ccsc1)C(=O)CO2` | -3.069% | 23.54% |
| `[H][C@@]12CCN(Cc3scnc3C)C[C@]1([H])OCCN(c1ccccc1)C2=O` | 0.8319% | 20.18% |
| `CN(C)c1ncc2c(n1)CCCC2NC(=O)c1ccsc1` (centres undefined) | 8.662% | 12.64% |
| `COCCn1/c(=N\C(=O)CN(C)S(C)(=O)=O)sc2cc(OC)ccc21` | -10.68% | -17.44% |
| `CC(C)NS(=O)(=O)c1cc(C(=O)O)cc(-c2ccccc2CN(C)C)c1` | -2.499% | 6.756% |
| `CCOc1ccccc1CCN1Cc2ncccc2C1=O` | -3.134% | -1.003% |
| `Cc1oc(-c2nc(C#N)c(NCC(C)C)o2)cc1S(=O)(=O)N1CCCC1` | 15.38% | -1.347% |
| `Cc1ccn2cc(C(=O)N3CCCC(Cn4cc(CO)nn4)C3)nc2c1` (centres undefined) | -1.923% | 28.71% |
| `O=C(NCC(O)COc1cccc(F)c1)c1ccoc1` (centres undefined) | -0.3245% | 2.412% |
| `O=C(O)C(F)(F)F.O=C(O)C(F)(F)F.O=C(O)C(F)(F)F.[H][C@@]12CN(Cc3cccnc3)CCO[C@]1([H])CN(Cc1ccc(OC)cc1)C2` | 1.452% | 9.208% |
| `CC(=O)N1CCC(C(=O)NCCc2c[nH]c3cc(C)ccc23)CC1` | - | 16.59% |
| `Cn1c2c(ccc1=O)CCN(Cc1ccoc1)CC2.O=C(O)C(F)(F)F` | -9.182% | 35.59% |
| `COc1ccc(C)cc1CN1CCn2cccc2C1C` (centres undefined) | 1.395% | 11.44% |
| `CCCc1ncc(CN(C)C2CCCN(CCc3ccccc3)C2)cn1` (centres undefined) | 1.703% | 11.63% |
| `CCc1nnsc1C(=O)NC(CC(C)C)C(=O)OC` (centres undefined) | -0.8738% | 8.203% |
| `[H][C@@]12CN(Cc3ccccc3)C[C@]1([H])N(CCCN1CCOCC1)C(=O)O2` | -5.286% | 18.75% |
| `CN(Cc1ccc(-n2cccn2)cc1)CC1CCCN1c1cccnn1` (centres undefined) | -1.024% | 23.91% |
| `CC(=O)N1CCC(CSCc2ccco2)CC1` | 2.254% | 19.65% |
| `CCN(CC)C(=O)Nc1ccc(C(=O)N(C)C)c(C)c1` | 15.56% | 23.92% |
| `Cc1nccn1C1CCCN(C(=O)c2cccc(S(C)(=O)=O)c2)C1` (centres undefined) | 4.991% | -1.99% |
| `O=C(O)C(F)(F)F.O=C(c1ccccn1)N1CCC2(CCCN(c3nncs3)C2)C1` (centres undefined) | -0.448% | 54.23% |
| `CCCc1cc(C(=O)NC(COC)c2ccnn2C)no1` (centres undefined) | 17.19% | 22.46% |
| `O=C(N[C@@H]1CCN(c2nc3ccccc3o2)C[C@H]1O)c1cnccn1` | 2.624% | 3.173% |
| `CCC(=O)Nc1nnc(CCOc2ccc(OC)cc2)s1` | 5.455% | -40.78% |
| `Cc1cc(C[C@@H]2COC[C@H]2NCc2ccc(C)c(C)c2)on1.O=C(O)CC(O)(CC(=O)O)C(=O)O` | 0.75% | -4.204% |
| `O=C(O)C(F)(F)F.O=C(O)C(F)(F)F.[H][C@@]12COC[C@]1(COc1cccnc1)CN(Cc1cccs1)C2` | -5.986% | 4.814% |
| `Cc1cccc(C)c1NC(=O)CNC(C)Cc1ccsc1` (centres undefined) | -0.3544% | 11.71% |
| `CCOC(=O)CC(c1cccc(OC)c1OC)c1c(C)[nH][nH]c1=O` (centres undefined) | 11.78% & 6.51% | 2.81% & 4.819% |
| `CN1CCN(C[C@@H]2CN(C3Cc4ccccc4C3)C[C@@H]2CO)CC1` | -3.889% | 4.168% |
| `CCn1cnc(NC(=O)NCC2CCS(=O)(=O)CC2)n1` | -3.927% | -3.929% |
| `CCCNC(=O)C(C)n1nc(-c2ccc(C)o2)cc(N)c1=O` (centres undefined) | -5.164% | 17.7% |
| `COc1cccc(S(=O)(=O)CCN2CCn3c(C)nnc3C2)c1` | -10.7% | -53.91% |
| `CCOCCCNCc1cc2c(C)cc(C)cc2n2c(=O)n(C)nc12` | -22.16% | -18.28% & -10.31% |
| `[H][C@@]12CN(Cc3cccs3)C[C@H](C(=O)Nc3cccnc3)[C@]1([H])CCO2` | -18.02% | 24.95% |
| `CCCc1nnc(NC(=O)N2CCCC(NC(C)=O)C2)s1` (centres undefined) | -0.9873% | 6.318% |
| `COc1nn(C)c2c1CCCN(S(=O)(=O)c1ccccc1F)C2` | -7.613% | 11.13% |
| `Br.Cc1c(NC(=O)CN2CCN(C3CCCC3)C(=O)C2)cnn1C` | 3.761% | -11.5% |
| `COc1c(C2CCCN2C(=O)c2nccnc2N)c(C)nn1C` (centres undefined) | -9.142% | 14.29% |
| `COc1ccc2c(c1)OCC(Cc1ccc(N(C)C)nc1)C2` (centres undefined) | -11.06% | 18.99% |
| `CCc1nc(C2CCCN2CCn2cncn2)no1` (centres undefined) | 7.898% | 12.71% |
| `[H][C@]12CC[C@]([H])(CN(Cc3ccccc3)C1)N(C(=O)N1CCN(C)CC1)C2` | 0.634% | 9.744% |
| `CCC(C)(NCC(=O)Nc1nc(C)cs1)c1nc(C)cs1` (centres undefined) | 1.01% | 31.76% |
| `Cc1nc(C2CCN(C(=O)c3ccnn3C)CC2)c2sccn12` | -3.869% | 17.23% & 11.69% |
| `COc1ccc(N(C)C(=O)C2CN(C)CCO2)cc1Cl` (centres undefined) | -7.145% | -18.69% |
| `Cc1ccc(CCNC(=O)NC2CCN(CC(F)(F)F)C2=O)cn1` (centres undefined) | 0.8115% | 39.1% |
| `CC[C@@]1(O)CCN(c2ncc(Cl)cc2F)C[C@H]1O` | -4.673% | 13.07% |
| `Cc1ncc(C(=O)N2CC(C(=O)N3CCCCCC3)C2)c(C)n1` | 17.41% | 1.713% |
| `Cc1cc(CN2CCC(CNC(=O)c3nccc4ccccc34)C2)[nH]n1` (centres undefined) | 0.6911% | 7.564% |
| `COC(=O)CNC(=O)CCCn1cnc2ccccc2c1=O` | 20.42% | 42.13% |
| `CC(=O)Nc1c(C)noc1/C=C\c1ccc(S(=O)(=O)NC2CC2)cc1` | -1.211% | 0.5282% |
| `O=C(c1ccc(S(=O)(=O)NCc2ccncc2)cc1)N1CCNCC1` | 0.6562% | 23.45% |
| `CC1(c2ccccc2)CCC(=O)N(CC2(N3CCOCC3)CCCC2)C1` (centres undefined) | -5.928% | 12.62% |
| `CCN(C)C1COC2(CCN(C(=O)c3ccc4[nH]ccc4c3)CC2)C1` (centres undefined) | 19.58% | 8.234% |
| `Cc1ccccc1OCCn1cnc2oc(C)c(C(=O)O)c2c1=O` | 3.556% | 12.51% |
| `CC(C)CCN1CCc2c(C(=O)N(C)Cc3ccccn3)nn(C)c2C1.O=C(O)C(F)(F)F.O=C(O)C(F)(F)F.O=C(O)C(F)(F)F` | -8.245% | 10.01% |
| `CN(C)CCN1C(=O)CCCC12CCCN(Cc1cccs1)C2.O=C(O)C(F)(F)F.O=C(O)C(F)(F)F` (centres undefined) | -17.34% | 20.75% |
| `Cc1ccc(C)c(NC(=O)Nc2c[nH]c(=O)[nH]c2=O)c1` | -4.767% | -3.118% |
| `O=C(c1ccon1)N1CCCCC1c1nc2cc(F)ccc2[nH]1` (centres undefined) | -2.563% | 49.5% |
| `O=C(O)C(F)(F)F.[H][C@@]12CCN(c3ccc(C)nn3)[C@]1([H])CC[C@H](C(=O)N1CCCO1)O2` | -1.024% | -11.34% |
| `CN1C(=O)CC(c2cnn(C)c2)C12CCN(C(=O)c1cccn1C)CC2` (centres undefined) | -8.647% | 28.22% |
| `N#Cc1cc(NC(=O)c2ccncc2)ccc1N1CCC(O)CC1` | -2.908% | 28.95% |
| `O=C(NCCN1CCOCC1)c1nc2ccccc2c(=O)[nH]1` | 2.967% | 4.709% |

Once more, the final 6:

| SMILES | Toxoplasma | Leishmania in macrophages |
|---|---|---|
| `Cc1ccc(C)c(NC(=O)Nc2c[nH]c(=O)[nH]c2=O)c1` | -4.767% | -3.118% |
| `O=C(c1ccon1)N1CCCCC1c1nc2cc(F)ccc2[nH]1` (centres undefined) | -2.563% | 49.5% |
| `O=C(O)C(F)(F)F.[H][C@@]12CCN(c3ccc(C)nn3)[C@]1([H])CC[C@H](C(=O)N1CCCO1)O2` | -1.024% | -11.34% |
| `CN1C(=O)CC(c2cnn(C)c2)C12CCN(C(=O)c1cccn1C)CC2` (centres undefined) | -8.647% | 28.22% |
| `N#Cc1cc(NC(=O)c2ccncc2)ccc1N1CCC(O)CC1` | -2.908% | 28.95% |
| `O=C(NCCN1CCOCC1)c1nc2ccccc2c(=O)[nH]1` | 2.967% | 4.709% |

Source: ChEMBL document CHEMBL3988442, “University of Dundee, Small-Polar-MMV Screening Library” (2021).